Experimental findings from publication PMC7524730 are described below.

The chains behind the UniProt entries cited, without tags or fusion partners. Where a name states a change or a piece, a line headed by the entry shows the natural chain unless it says otherwise.
UniProt O14744: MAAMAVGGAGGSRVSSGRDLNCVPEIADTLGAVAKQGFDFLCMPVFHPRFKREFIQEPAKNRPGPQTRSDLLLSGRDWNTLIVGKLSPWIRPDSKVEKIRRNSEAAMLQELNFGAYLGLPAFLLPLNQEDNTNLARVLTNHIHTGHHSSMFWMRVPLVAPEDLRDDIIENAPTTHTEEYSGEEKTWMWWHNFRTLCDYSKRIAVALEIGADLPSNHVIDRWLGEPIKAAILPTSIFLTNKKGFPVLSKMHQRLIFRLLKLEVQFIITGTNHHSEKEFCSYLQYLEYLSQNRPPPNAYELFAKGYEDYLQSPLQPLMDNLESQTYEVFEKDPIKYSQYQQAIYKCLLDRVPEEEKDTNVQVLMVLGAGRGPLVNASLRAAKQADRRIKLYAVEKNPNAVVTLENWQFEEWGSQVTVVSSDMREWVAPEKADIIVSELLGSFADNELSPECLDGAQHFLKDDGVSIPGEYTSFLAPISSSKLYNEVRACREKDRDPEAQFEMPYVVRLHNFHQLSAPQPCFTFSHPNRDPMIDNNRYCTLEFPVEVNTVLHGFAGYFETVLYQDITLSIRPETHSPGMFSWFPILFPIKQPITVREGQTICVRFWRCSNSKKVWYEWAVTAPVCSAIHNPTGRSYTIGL
UniProt P28482: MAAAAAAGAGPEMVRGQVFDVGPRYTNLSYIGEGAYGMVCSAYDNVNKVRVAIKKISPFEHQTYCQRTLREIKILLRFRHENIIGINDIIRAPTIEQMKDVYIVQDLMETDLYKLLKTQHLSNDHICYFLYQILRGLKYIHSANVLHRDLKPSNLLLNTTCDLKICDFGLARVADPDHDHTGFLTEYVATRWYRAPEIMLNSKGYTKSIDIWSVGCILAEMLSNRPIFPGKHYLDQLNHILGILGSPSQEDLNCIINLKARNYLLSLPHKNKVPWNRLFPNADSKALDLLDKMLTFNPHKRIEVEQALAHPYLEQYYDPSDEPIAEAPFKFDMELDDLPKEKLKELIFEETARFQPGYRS

Positions count from the first letter of the chain named. No constants are given. Whether binding was seen depends on the method and setting. Binding seen in cells or lysates may run through a third protein. Some entries that bind do so weakly or less than the wild type. For part of these data: Where a sequence is shown, tags or fusion partners need not be part of it.

In assay [1] the target is T1, Lymphoid-specific helicase (LSH), expressed in 293T cells (human) (UniProt Q9NRZ9).
T1 sequence: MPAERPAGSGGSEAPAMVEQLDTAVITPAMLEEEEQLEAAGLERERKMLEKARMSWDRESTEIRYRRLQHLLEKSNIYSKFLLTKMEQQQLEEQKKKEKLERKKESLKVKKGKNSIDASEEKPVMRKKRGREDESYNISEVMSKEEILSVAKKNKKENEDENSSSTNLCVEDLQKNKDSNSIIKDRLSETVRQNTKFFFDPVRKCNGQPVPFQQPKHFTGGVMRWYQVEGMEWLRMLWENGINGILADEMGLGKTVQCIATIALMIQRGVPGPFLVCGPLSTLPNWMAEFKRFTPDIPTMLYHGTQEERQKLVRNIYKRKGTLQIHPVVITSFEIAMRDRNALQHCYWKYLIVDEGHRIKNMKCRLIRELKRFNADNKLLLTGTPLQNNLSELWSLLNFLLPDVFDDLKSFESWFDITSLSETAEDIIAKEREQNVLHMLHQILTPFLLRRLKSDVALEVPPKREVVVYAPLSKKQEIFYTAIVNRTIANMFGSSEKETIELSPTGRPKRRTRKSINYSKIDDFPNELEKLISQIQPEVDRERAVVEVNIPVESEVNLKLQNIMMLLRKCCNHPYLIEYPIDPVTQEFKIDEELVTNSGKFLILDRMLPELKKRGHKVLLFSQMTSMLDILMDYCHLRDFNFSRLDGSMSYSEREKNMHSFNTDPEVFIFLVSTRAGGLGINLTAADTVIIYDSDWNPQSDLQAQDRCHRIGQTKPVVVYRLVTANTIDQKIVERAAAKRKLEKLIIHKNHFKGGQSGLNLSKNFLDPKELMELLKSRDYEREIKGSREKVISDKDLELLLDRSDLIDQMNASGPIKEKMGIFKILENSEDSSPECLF
The experiment in a line: co-IP; IP with an anti-LSH antibody from 293T cells ectopically expressing LSH, IB with the indicated antibodies; IgG as isotype control; antibody overnight at 4 °C, Dynabeads Protein G.

Assay [2] concerns the target T1, Lymphoid-specific helicase (LSH), expressed in 293T cells (human). The experiment in a line: co-IP; Flag-tagged LSH and HA-tagged PRMT5 full-length or truncation constructs cotransfected into 293T cells; IP then IB.
Assay [3] shares this target. The experiment in a line: co-IP; exogenous LSH and PRMT5 in H358 and 293T cells; LSH or PRMT5 immunoprecipitated, IB with anti-PRMT5 or anti-LSH; Dynabeads Protein G, 4 °C.
The target of assay [4] is T2, GST-LSH fusion protein (human) (UniProt Q9NRZ9).
T2 sequence: T1 sequence
The experiment in a line: pull-down; GST pull-down; GST-LSH expressed in E. coli as bait, HA-tagged PRMT5 expressed in 293T cells; only the target purified.

The target of assay [5] is T3, Flag-tagged LSH amino acids 227-589 (human) (UniProt Q9NRZ9).
T3 sequence: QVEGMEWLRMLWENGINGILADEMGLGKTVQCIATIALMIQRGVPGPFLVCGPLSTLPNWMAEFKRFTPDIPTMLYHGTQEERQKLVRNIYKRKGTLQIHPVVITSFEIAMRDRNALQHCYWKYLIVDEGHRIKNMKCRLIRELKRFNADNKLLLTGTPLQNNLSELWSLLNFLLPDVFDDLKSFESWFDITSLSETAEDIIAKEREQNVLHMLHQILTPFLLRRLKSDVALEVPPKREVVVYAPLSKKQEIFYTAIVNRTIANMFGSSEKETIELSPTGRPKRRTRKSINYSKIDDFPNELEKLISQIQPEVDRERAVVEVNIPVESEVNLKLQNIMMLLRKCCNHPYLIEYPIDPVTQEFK
The experiment in a line: co-IP; Flag-tagged LSH and HA-tagged PRMT5 full-length or truncation constructs cotransfected into 293T cells; IP then IB.

Assay [6] deals with T4, LSH WT, stably expressed in PC9 cells (human) (UniProt Q9NRZ9).
T4 sequence: T1 sequence
The experiment in a line: co-IP; PC9 cells stably expressing Vector, LSH WT, R309A or S503A; IP then IB for PRMT5 and LSH.

Assay [7] concerns the target T5, LSH R309A mutant, stably expressed in PC9 cells (human) (UniProt Q9NRZ9).
T5 sequence: T1 sequence with R309A
The assay is described as above.

In assay [8] the target is T6, LSH S503A mutant, stably expressed in PC9 cells (human) (UniProt Q9NRZ9).
T6 sequence: T1 sequence with S503A
The description is as above.

Assay [9] addresses T7, LSH, endogenous in A549 cells (human (endogenous in A549)) (UniProt Q9NRZ9).
T7 sequence: T1 sequence
The experiment in a line: co-IP; endogenous LSH and PRMT5 in A549 cells; LSH or PRMT5 immunoprecipitated, IB with anti-PRMT5 or anti-LSH; Dynabeads Protein G, 4 °C.

In assay [10] the target is HA-tagged PRMT5 amino acids 1-324 (human) (UniProt O14744). The experiment in a line: co-IP; Flag-tagged LSH and HA-tagged PRMT5 full-length or truncation constructs cotransfected into 293T cells; IP then IB.

Consider “MAPK1 (from UniProt P28482 1-360) (enzyme)”, for which the binding entry in [1] is given as “binds”.
Still for that read-out and setting: with “Protein arginine methyltransferase 5 (PRMT5), in 293T cells expressing LSH (from UniProt O14744 1-637) (enzyme)” the entry was “binds”.
Regarding “HA-tagged PRMT5 amino acids 1-324 (from UniProt O14744 1-324) (domain or fragment)”, the binding entry in [2] is listed as “binds”.
“HA-tagged full-length PRMT5 (from UniProt O14744 1-637) (enzyme)”: the binding result in assay [3], in assay [4] and in assay [5] was “binds” throughout.
In the case of “PRMT5, in PC9 cells (from UniProt O14744 1-637) (enzyme)”, the binding result in assay [6], in [7] and in assay [8] was “binds” in each case.
On to “PRMT5, endogenous in A549 cells (from UniProt O14744 1-637) (enzyme)”, for which the binding result in assay [9] is “binds”.

B1: minichromosome maintenance 3 (MCM3) (protein, UniProt P25205 1-808)
chain: MAGTVVLDDVELREAQRDYLDFLDDEEDQGIYQSKVRELISDNQYRLIVNVNDLRRKNEKRANRLLNNAFEELVAFQRALKDFVASIDATYAKQYEEFYVGLEGSFGSKHVSPRTLTSCFLSCVVCVEGIVTKCSLVRPKVVRSVHYCPATKKTIERRYSDLTTLVAFPSSSVYPTKDEENNPLETEYGLSVYKDHQTITIQEMPEKAPAGQLPRSVDVILDDDLVDKAKPGDRVQVVGTYRCLPGKKGGYTSGTFRTVLIACNVKQMSKDAQPSFSAEDIAKIKKFSKTRSKDIFDQLAKSLAPSIHGHDYVKKAILCLLLGGVERDLENGSHIRGDINILLIGDPSVAKSQLLRYVLCTAPRAIPTTGRGSSGVGLTAAVTTDQETGERRLEAGAMVLADRGVVCIDEFDKMSDMDRTAIHEVMEQGRVTIAKAGIHARLNARCSVLAAANPVYGRYDQYKTPMENIGLQDSLLSRFDLLFIMLDQMDPEQDREISDHVLRMHRYRAPGEQDGDAMPLGSAVDILATDDPNFSQEDQQDTQIYEKHDNLLHGTKKKKEKMVSAAFMKKYIHVAKIIKPVLTQESATYIAEEYSRLRSQDSMSSDTARTSPVTARTLETLIRLATAHAKARMSKTVDLQDAEEAVELVQYAYFKKVLEKEKKRKKRSEDESETEDEEEKSQEDQEQKRKRRKTRQPDAKDGDSYDPYDFSDTEEEMPQVHTPKTADSQETKESQKVELSESRLKAFKVALLDVFREAHAQSIGMNRLTESINRDSEEPFSSVEIQAALSKMQDDNQVMVSEGIIFLI
In the case of B1, the binding result in assay [1] is on record as “binds”.

B2: Flag-tagged LSH amino acids 227-589 (domain or fragment, UniProt Q9NRZ9 227-589)
chain: T3 sequence
For the molecule B2, the binding entry in assay [10] was “binds”.
